# In PubChem BioAssay AID445 (National Center for Advancing Translational Sciences (NCATS), 2006):
# This is one part of the list. The main result of the screen is listed elsewhere. These columns were measured beside it and carry no call. Compounds called inactive in the main read-out are mostly missing here. Potencies come from curve fits of mixed quality, noted in brackets.
# Test: IkB Signaling
# Conditions: ABC-DLBCL IkBa-CBG/CBR dual luciferase ratio (green luciferase fused to IkBa over red control in OCI-Ly3 lymphoma cells), 4 h
# In short: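 In this assay, an IκBα–CBG68 fusion accumulates when IKK-driven degradation is blocked; native CBR normalizes for cell number. OCI-Ly3 cells were treated 4 h with compound and doxycycline, then green and red light read after Chroma-Glo addition.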
# [1] = measured here: control luc red channel unless noted
compound,measurement,setting,value
O=C1C(=O)c2ccccc2C(O)=C1C1CCC(c2ccc(Cl)cc2)CC1 (centres undefined),AC50,[1],"5.01 µM [falling, full curve, poor fit]"
O=C(NCc1ccc2c(c1)OCO2)c1ccc(COc2cccc(Cl)c2)o1,AC50,[1],"15.8 µM [falling, partial curve]"
Cc1ccc(SCc2cn3c(C)csc3n2)cc1,AC50,[1],"12.6 µM [falling, partial curve]"
COc1ccc(Cl)cc1NC(=O)CCc1nc(-c2ccccc2F)no1,AC50,[1],"39.8 µM [falling, single point]"
O=C(Cn1c(=O)n(Cc2ccc3c(c2)OCO3)c(=O)c2ccccc21)Nc1cccc(Cl)c1,AC50,[1],"12.6 µM [falling, partial curve]"
Cc1c(C(=O)N2CCCC2)oc2c1-c1nn(CC(=O)NCc3cccc(Br)c3)cc1CC2,AC50,[1],"7.94 µM [falling, partial curve]"
CCc1nnc(NC(=O)CCC(=O)N2CCN(Cc3ccccc3)CC2)s1,AC50,[1],"6.31 µM [falling, partial curve]"
Cc1ccc(NC(=O)CCn2cccn2)cc1Cl,AC50,[1],"3.98 µM [rising, partial curve]"
O=C1CC(SCc2nc3ccccc3[nH]2)C(=O)N1c1cccc(F)c1 (centres undefined),AC50,[1],"10 µM [falling, partial curve]"
COc1ccc(NC(=O)Cn2c(=O)n(-c3ccccc3)c(=O)c3c4c(sc32)CCCC4)cc1,AC50,measured here: IkB-luc green channel,"39.8 µM [rising, single point]"
same,AC50,measured here: control luc red channel,"0.126 µM [rising, full curve]"
O=C(CN(c1ccc2c(c1)OCCO2)S(=O)(=O)c1ccccc1)Nc1ccc2c(c1)OCO2,AC50,[1],"10 µM [falling, partial curve]"
C=CCn1c(SCC(=O)Nc2ccc3c(c2)CCC3)nnc1-c1cccs1,AC50,[1],"20 µM [falling, partial curve]"
Cc1cc(C)cc(Nc2cc(-c3ccccc3)nc(C)n2)c1,AC50,[1],"15.8 µM [falling, partial curve]"
CCCCN(C)c1nnc(NC(=O)Nc2cccc(C(C)=O)c2)s1,AC50,[1],"20 µM [falling, partial curve]"
COC(=O)c1c(NC(=O)c2cc3nc(-c4ccc(OC)cc4)cc(C(F)(F)F)n3n2)sc2c1CCCC2,AC50,[1],"6.31 µM [rising, partial curve]"
COc1ccc(-c2cc(NCc3ccc(F)cc3)n3cnnc3n2)cc1,AC50,[1],"31.6 µM [falling, single point]"
Cc1cc(OCC(=O)NCC2(N3CCN(C)CC3)CCCCC2)cc(C)c1Cl,AC50,[1],"15.8 µM [falling, single point]"
Cc1nn(CC(=O)NCCc2ccc(Cl)cc2)c(=O)c2cc3cc(F)ccc3n12,AC50,[1],"20 µM [falling, single point]"

# 4 entries from above, set out differently.
compound | measurement | setting | value
COC(=O)c1c(NC(=O)c2cc3nc(-c4ccc(OC)cc4)cc(C(F)(F)F)n3n2)sc2c1CCCC2 | AC50 | [1] | 6.31 µM [rising, partial curve]
COc1ccc(-c2cc(NCc3ccc(F)cc3)n3cnnc3n2)cc1 | AC50 | [1] | 31.6 µM [falling, single point]
Cc1cc(OCC(=O)NCC2(N3CCN(C)CC3)CCCCC2)cc(C)c1Cl | AC50 | [1] | 15.8 µM [falling, single point]
Cc1nn(CC(=O)NCCc2ccc(Cl)cc2)c(=O)c2cc3cc(F)ccc3n12 | AC50 | [1] | 20 µM [falling, single point]
